# The list shows a part of the results.
# Target: T1, OsSMF1 (Oryza sativa, UniProt Q6ZLB0 1-436)
# T1 sequence: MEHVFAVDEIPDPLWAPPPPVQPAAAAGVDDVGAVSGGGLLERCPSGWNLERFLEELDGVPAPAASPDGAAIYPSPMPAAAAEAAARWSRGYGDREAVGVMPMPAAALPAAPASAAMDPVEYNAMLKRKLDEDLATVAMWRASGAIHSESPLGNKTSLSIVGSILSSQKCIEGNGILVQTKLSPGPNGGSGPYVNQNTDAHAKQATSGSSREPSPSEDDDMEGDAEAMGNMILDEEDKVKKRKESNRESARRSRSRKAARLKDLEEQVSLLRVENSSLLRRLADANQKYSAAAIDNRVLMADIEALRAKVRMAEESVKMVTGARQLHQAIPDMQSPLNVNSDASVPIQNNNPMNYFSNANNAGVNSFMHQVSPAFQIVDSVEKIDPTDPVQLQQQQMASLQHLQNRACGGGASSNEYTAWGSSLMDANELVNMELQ
# Experiment: protein-binding microarray (RPBM); PBS, 2% BSA, 51.3 ng/ul salmon testes DNA, 50 uM zinc acetate, 200 nM TF, 25 C, 1 h; high values mean tight binding
# Conditions: protein: recombinant; tags: N-terminal polyhistidine and DsRed monomer fusion (pET32a); chain copies: 2; label: CyDye5-dUTP incorporated in the synthesized complementary strand; 3' TTTTT single-stranded linker to array surface; dsDNA, one strand shown
# Procedure, shortened: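 The binding signal for each feature is its fluorescence intensity in arbitrary units. An Axon 4000B scanner was used to read a custom Agilent array that had been made double-stranded with Cy5-dUTP primer extension, blocked with 2% BSA, incubated at 25 °C for 1 h with 200 nM protein in PBS, 2% BSA, salmon testes DNA and 50 µM zinc acetate, and washed. The protein was an N-terminal polyhistidine–DsRed transcription factor fusion from E. coli BL21-CodonPlus, purified on Ni–NTA.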
row,Sequence,binding signal
1,GATGACACAGTAGTACTCCTAGGCACGTACGTACTTTCTCCGGAGTCACCTAGTGCAG,3620 fluorescence intensity (a.u.)
2,ACCGTGAGATGGACACGTCATTGCTATTCACATGAGATGTCGGAGTCACCTAGTGCAG,13700 fluorescence intensity (a.u.)
3,TTCTCCGGCACCTCCGGCTGGTGCGACACGCGGTTCGTGCCGGAGTCACCTAGTGCAG,3450 fluorescence intensity (a.u.)
4,AGAGGAAGTACAGACACATTTTCATCAGGATGTTGTATTGCGGAGTCACCTAGTGCAG,24700 fluorescence intensity (a.u.)
5,CTACATATCAGGTGTCCACGTCACCCTCTCTCTTTCCCCTCGGAGTCACCTAGTGCAG,37200 fluorescence intensity (a.u.)
6,CCGGTCGGTACTAGTTCGGGGCGTGACACATGGTAGTTATCGGAGTCACCTAGTGCAG,4000 fluorescence intensity (a.u.)
7,AATATGATAATGCTATTGTTCACACACGAATGTCGACGTGCGGAGTCACCTAGTGCAG,3530 fluorescence intensity (a.u.)
8,CATTTGACCGTGGTCTTGCCTACGTGGCACGCCACGTGAACGGAGTCACCTAGTGCAG,31800 fluorescence intensity (a.u.)
9,CATCATTGCTGCTGCTCTGCCATCGTCGCGCGCACACACGCGGAGTCACCTAGTGCAG,4030 fluorescence intensity (a.u.)
10,TGAACTGTAGAAGCGCCCTTGTCTATGAACTTGTTTGGACCGGAGTCACCTAGTGCAG,3630 fluorescence intensity (a.u.)
11,TCACTTTTAAAATATTTGTCAATCAAATGTGATGACTACACGGAGTCACCTAGTGCAG,3200 fluorescence intensity (a.u.)
12,ATCAGCATTTCGCCTTTCGTCGTCGTCGTCATCATCCACTCGGAGTCACCTAGTGCAG,6320 fluorescence intensity (a.u.)
13,GCCTCCCCGCGCCTTGCTGCCACCGACTGGGCGACGCCGACGGAGTCACCTAGTGCAG,3310 fluorescence intensity (a.u.)
14,GAGGCAAAGGCAACACGTCCGCACGCCCGCCGACCACCTCCGGAGTCACCTAGTGCAG,3840 fluorescence intensity (a.u.)
15,CTTGTTAGTGGATGATGATGTGGCATCCTTGTATGTTAAGCGGAGTCACCTAGTGCAG,19800 fluorescence intensity (a.u.)
16,TGCTTACAGCGAAGCCATGCAGATTGCAGGCAGGCAGGCACGGAGTCACCTAGTGCAG,20500 fluorescence intensity (a.u.)
17,GTGGGTCGATGATGACGAGATCCTCCCAACAGCCCCACCCCGGAGTCACCTAGTGCAG,3780 fluorescence intensity (a.u.)
18,GGCTCTCCTCCGGCCGCCACGTCGCCGGCTCCGGCCAGCACGGAGTCACCTAGTGCAG,9580 fluorescence intensity (a.u.)
19,GCCTACCCGCCGGAATCTTGCGTCATCTGGCGGCCGCCGCCGGAGTCACCTAGTGCAG,6110 fluorescence intensity (a.u.)
20,CGGCGGTGGGCCGGATCCAGACGCGTGGAGTCGGGACCGGCGGAGTCACCTAGTGCAG,3240 fluorescence intensity (a.u.)
21,ATGCATGCATATATGTAGGTGTAGATAATAATAATTTCACCGGAGTCACCTAGTGCAG,5710 fluorescence intensity (a.u.)

row,Sequence,binding signal
1,ATTCGTCTGCGCTGCCCCGCGGCGGTGGCGGTGACGGTGGCGGAGTCACCTAGTGCAG,4150 fluorescence intensity (a.u.)
2,CTCCACTTAAAATGGGAGTAGAGCTAGGTGGAGCGTTCTCCGGAGTCACCTAGTGCAG,5420 fluorescence intensity (a.u.)
3,AAAGGCCCAACCCAGTTGATCCTGGGCCATTATCCCGTCACGGAGTCACCTAGTGCAG,3160 fluorescence intensity (a.u.)
4,TCCTCCCGGTGTGCCGGAACACCGTCACCTGGATCCGCAACGGAGTCACCTAGTGCAG,3610 fluorescence intensity (a.u.)
5,TATCCCGTGCTAGTGTATACGTGCTTACGTGCTAGTTAGTCGGAGTCACCTAGTGCAG,4120 fluorescence intensity (a.u.)
6,TCCCGCAGGAGTTCCACCCACGTGTCATAAACCATTACAGCGGAGTCACCTAGTGCAG,12800 fluorescence intensity (a.u.)
7,CAGAATTTAGCAACATTAGTTGCTGGTTTGTTGATTGCTTCGGAGTCACCTAGTGCAG,3440 fluorescence intensity (a.u.)
8,CAAGCGTGATGCGTCGACGTCACGAACCAATCTGCAAGGGCGGAGTCACCTAGTGCAG,4800 fluorescence intensity (a.u.)
9,TCCACGCCGCCGTCGTCGGCGTCCTCCGCCGCCGTGTCCTCGGAGTCACCTAGTGCAG,3610 fluorescence intensity (a.u.)
10,TCGAGCTGCTTTTCACGAGTTTGCACTTTGCATGACAAGGCGGAGTCACCTAGTGCAG,3240 fluorescence intensity (a.u.)
11,GATATACTATCCTCCAATGAGTCATCCTGTTTCACTGCTACGGAGTCACCTAGTGCAG,3400 fluorescence intensity (a.u.)
12,GCTAGTACCGGCATCGCCTGCTTCGCTTTCGTCACGTTCTCGGAGTCACCTAGTGCAG,3990 fluorescence intensity (a.u.)
13,CGCTAGTGCGGCGCGGCCCACCAAGGCACCAACACGTAAGCGGAGTCACCTAGTGCAG,5610 fluorescence intensity (a.u.)
14,CTCGGCATCCGCATCCGCGCGACGACGACGACGAGGAGGACGGAGTCACCTAGTGCAG,8090 fluorescence intensity (a.u.)
15,CCCTGATGACATGGCAATCTAGTTTCATTGAATCTAGGAGCGGAGTCACCTAGTGCAG,12100 fluorescence intensity (a.u.)
16,GGGCTCTCCGCTCCTCCGCCGCATCATGTTGTGGAGCTCCCGGAGTCACCTAGTGCAG,3950 fluorescence intensity (a.u.)
17,TACTATATTGTTTGGTATTTGCAGGTTCACGTGTCAAAGTCGGAGTCACCTAGTGCAG,4140 fluorescence intensity (a.u.)
18,ATCCGTCCGTTTCGTTCCGTACGAACCGCCGGCGTTCAAACGGAGTCACCTAGTGCAG,3250 fluorescence intensity (a.u.)
19,ATAAAGTGATTTTCGGTTGTGATGATGCGGTCTATATATACGGAGTCACCTAGTGCAG,4260 fluorescence intensity (a.u.)
20,TTACCAGATTAATATTAATGTAATCCGTGTGTCAGCAGGCCGGAGTCACCTAGTGCAG,6760 fluorescence intensity (a.u.)
21,AAAGAACCCAAGTGTATAGAAGTACACGTCTAACCGGTGTCGGAGTCACCTAGTGCAG,3230 fluorescence intensity (a.u.)

# Copied from the results shown (2 entries):
row,Sequence,binding signal
14,CTCGGCATCCGCATCCGCGCGACGACGACGACGAGGAGGACGGAGTCACCTAGTGCAG,8090 fluorescence intensity (a.u.)
15,CCCTGATGACATGGCAATCTAGTTTCATTGAATCTAGGAGCGGAGTCACCTAGTGCAG,12100 fluorescence intensity (a.u.)

# Reference: publication PMC7819943, “Rice protein-binding microarrays: a tool to detect cis-acting elements near promoter regions in rice”
